Patent US20070185115A1, “Novel ureido-and amido-pyrazolone derivatives” (Aston University, priority 2003, published 2007)
For at least one compound, name, drawing or mass did not settle the structure.

Biological target: T1, CCKA receptor (Rattus norvegicus, UniProt P30551)
T1 construct: Pancreatic membranes were prepared in a similar way but by Charpentier et al; from tissue; host or cells: rat pancreas membranes
T1 sequence (P30551 1-444): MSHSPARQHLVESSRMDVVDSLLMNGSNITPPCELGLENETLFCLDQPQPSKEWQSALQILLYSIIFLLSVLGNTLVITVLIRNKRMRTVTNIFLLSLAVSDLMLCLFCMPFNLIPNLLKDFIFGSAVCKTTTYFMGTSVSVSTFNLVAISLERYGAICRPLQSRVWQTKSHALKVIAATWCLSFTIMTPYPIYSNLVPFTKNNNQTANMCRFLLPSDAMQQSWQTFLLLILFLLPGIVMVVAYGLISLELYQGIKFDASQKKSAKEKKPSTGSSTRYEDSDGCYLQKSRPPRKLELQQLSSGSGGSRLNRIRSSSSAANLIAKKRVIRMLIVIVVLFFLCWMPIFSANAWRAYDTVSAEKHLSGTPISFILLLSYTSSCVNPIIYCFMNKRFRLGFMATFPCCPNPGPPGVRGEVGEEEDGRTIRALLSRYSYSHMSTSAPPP
Assay: 125I-CCK-8 receptor binding assay, CCKA (rat pancreas membranes)
Conditions: Table 2; ratio of CCKB and CCKA IC50 values
Protocol: Pharmacological Methods—^[125]I-CCK-8 Receptor Binding Assay
CCKA and CCKB receptor binding assays were performed, by using guinea pig cerebral cortex (CCKB) or rat pancreas (CCKA). Male guinea pig brain tissues were prepared according to the modified method described by Saita et al, [(1994), Characterization of YM022: its CCKB/gastrin receptor binding profile and antagonism to CCK-8-induced Ca2+mobilization., Eur. J. PharmacoL,269, 249-254]. Pancreatic membranes were prepared in a similar way but by Charpentier et al, [(1988), Cyclic cholecystokinin analogues with high selectivity for central receptors., Proc Natl Acad Sci USA, 85, 1968-1972]. For the in vivo CCK binding assay tissues were homogenised in ice cold sucrose (0.32 M, 25 ml) for 15 strokes at 500 rpm and centrifuged at 13000 rpm for 10 mins. The supernatant was re-centrifuged at 13000 rpm for 20 mins. The resulting pellet was re-dispersed to the required volume of buffer at 500 rpm and stored in aliquots at […].
Binding was achieved using a.radioligand ^125I-Bolton-Hunter labeled CCK, NEN at 25 pM. […] The membrane pellets were washed twice with water and the bound radioactivity was measured in a Packard Cobra Auto-gamma counter (B5005). […]

In the case of `Cc1c(NC(=O)Cc2c[nH]c3ccccc23)c(=O)n(-c2ccccc2)n1C` [Example 19], the “Ratio A/B” value is reported as 4.5.
